Results are given in words; binding and its absence hold for the method and conditions named. Binding seen in cells or lysates may run through a third protein. Some binding calls cover weakened binding; strength is not graded here. Tags and fused reporters may be left off the sequences shown.
Columns and labels:
[1] = molecular target: T1, GFP-LGN (UniProt P81274); experiment: proximity ligation; Duolink PLA with GFP and ANXA1 primary antibodies in fixed GFP-LGN-expressing MCF-10A cells; interphase and metaphase cells
T1 sequence: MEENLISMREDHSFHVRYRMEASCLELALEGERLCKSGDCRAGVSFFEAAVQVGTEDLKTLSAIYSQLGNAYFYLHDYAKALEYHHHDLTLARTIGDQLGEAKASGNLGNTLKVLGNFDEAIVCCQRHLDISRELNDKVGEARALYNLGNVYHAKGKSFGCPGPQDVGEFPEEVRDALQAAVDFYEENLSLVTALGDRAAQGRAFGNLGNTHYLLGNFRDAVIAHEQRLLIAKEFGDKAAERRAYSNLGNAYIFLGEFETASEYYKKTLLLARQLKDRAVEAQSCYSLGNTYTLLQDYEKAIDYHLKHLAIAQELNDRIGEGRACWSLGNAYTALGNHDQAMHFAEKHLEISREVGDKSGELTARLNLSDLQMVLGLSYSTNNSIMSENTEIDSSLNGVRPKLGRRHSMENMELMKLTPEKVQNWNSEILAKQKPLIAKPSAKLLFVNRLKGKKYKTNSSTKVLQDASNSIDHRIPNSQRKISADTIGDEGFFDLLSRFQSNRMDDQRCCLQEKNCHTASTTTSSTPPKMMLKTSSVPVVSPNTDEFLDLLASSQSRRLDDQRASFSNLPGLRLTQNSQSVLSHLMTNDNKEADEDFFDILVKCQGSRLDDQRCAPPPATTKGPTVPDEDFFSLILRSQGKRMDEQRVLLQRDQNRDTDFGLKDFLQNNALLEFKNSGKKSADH

[2] = molecular target: T1, GFP-LGN; experiment: co-IP; GFP-Trap beads on lysates of MCF-10A cells stably expressing GFP-LGN, arrested in metaphase; western blotting of the immunoprecipitates

B1: Annexin A1 (ANXA1) (protein, UniProt P04083 1-346)
chain: MAMVSEFLKQAWFIENEEQEYVQTVKSSKGGPGSAVSPYPTFNPSSDVAALHKAIMVKGVDEATIIDILTKRNNAQRQQIKAAYLQETGKPLDETLKKALTGHLEEVVLALLKTPAQFDADELRAAMKGLGTDEDTLIEILASRTNKEIRDINRVYREELKRDLAKDITSDTSGDFRNALLSLAKGDRSEDFGVNEDLADSDARALYEAGERRKGTDVNVFNTILTTRSYPQLRRVFQKYTKYSKHDMNKVLDLELKGDIEKCLTAIVKCATSKPAFFAEKLHQAMKGVGTRHKALIRIMVSRSEIDMNDIKAFYQKMYGISLCQAILDETKGDYEKILVALCGGN
With B1 the binding [1] was “binds” and the binding [2] was “binds”.

— publication PMC9834401
